Assay results: patent US20070032521A1, “Use of c-kit inhibitors for treating type II diabetes” (AB Science, priority 2003, published 2007)
Some results were stated once for a whole list of compounds, not compound by compound.

What was measured:
c-Kit JM Δ27 = c-Kit JM Δ27 (Mus musculus, UniProt P05532); test: ex vivo TK inhibition, [3H] thymidine proliferation assay, mutated c-Kit (JM); assay type: cell-based, murine; settings: Ba/F3 mkitΔ27 (juxtamembrane deletion), [3H] thymidine incorporation after 2 days of culture
c-Kit WT = c-Kit WT (UniProt P05532); test: ex vivo TK inhibition, [3H] thymidine proliferation assay, c-Kit WT; assay type: cell-based; settings: Ba/F3-derived cells, [3H] thymidine incorporation after 2 days of culture

## Cc1ccc(NC(=O)c2ccc(CN3CCN(C)CC3)cc2)cc1Nc1nc(-c2ccccn2)cs1 [Compound 122, 4-(4-Methyl-piperazin-1-ylmethyl)-N-[4-methyl-3-(4-pyridin-2-yl-thiazol-2-ylamino)-phenyl]-benzamide]
c-Kit JM Δ27
  IC50: < 1 µM
c-Kit WT
  IC50: < 10 µM
